# PubChem BioAssay AID926 (National Center for Advancing Translational Sciences (NCATS), 2007)
# The chains behind the UniProt entries cited, without tags or fusion partners.
# UniProt P16473, whole entry: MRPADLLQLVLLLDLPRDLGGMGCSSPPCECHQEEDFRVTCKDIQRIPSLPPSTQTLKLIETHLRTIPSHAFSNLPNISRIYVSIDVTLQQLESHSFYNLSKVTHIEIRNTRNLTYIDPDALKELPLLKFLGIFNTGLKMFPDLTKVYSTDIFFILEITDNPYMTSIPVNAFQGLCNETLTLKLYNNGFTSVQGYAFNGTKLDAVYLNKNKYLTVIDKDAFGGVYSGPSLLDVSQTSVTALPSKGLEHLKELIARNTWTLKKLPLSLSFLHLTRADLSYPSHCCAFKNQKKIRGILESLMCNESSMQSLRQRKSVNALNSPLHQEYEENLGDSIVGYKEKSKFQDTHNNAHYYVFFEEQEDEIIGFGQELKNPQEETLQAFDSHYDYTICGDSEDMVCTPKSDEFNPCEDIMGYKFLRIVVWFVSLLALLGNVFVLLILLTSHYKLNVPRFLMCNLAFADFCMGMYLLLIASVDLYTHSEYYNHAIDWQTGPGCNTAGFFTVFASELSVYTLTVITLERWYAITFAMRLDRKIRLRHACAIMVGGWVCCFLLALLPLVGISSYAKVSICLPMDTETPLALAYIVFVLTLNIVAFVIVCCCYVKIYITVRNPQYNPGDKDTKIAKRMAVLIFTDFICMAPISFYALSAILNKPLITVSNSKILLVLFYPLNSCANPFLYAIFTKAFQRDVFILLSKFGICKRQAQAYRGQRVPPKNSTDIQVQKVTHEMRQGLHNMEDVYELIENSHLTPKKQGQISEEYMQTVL
# Out of some 73,000 compounds screened, about 350 (0.48%) were called active. The source calls these results inconclusive, neither active nor inactive. The call rests on the fitted dose curve; in most records, active means well fitted activation curve with a large enough effect in the main read-out, with a control signal flat (not every such curve was filed as active); inconclusive means small, poorly fitted or top-dose-only effect, or a change in a side signal; inactive means no such curve, though single readings can be large or run the other way; reference of the percent scale not stated here.
# Molecular target: Thyrotropin receptor (Homo sapiens) (UniProt P16473)
# Experiment: qHTS Assay for Agonists of the Thyroid Stimulating Hormone Receptor;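 further: the control signal comes from parental cells without the receptor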
# Details: HEK293-CNG-TSHR cells (CNG channel as cAMP sensor), membrane potential dye, cAMP
# Potency means the concentration at half of the fitted maximal effect.
row,Structure (SMILES),Potency
1,CCOP(=O)(CC)OCC,inconclusive: 6.31 µM
2,CCC(C)(OO)OOC(C)(CC)OO (centres undefined),inconclusive: 39.8 µM
3,Cc1cccc([N+](=O)[O-])c1[N+](=O)[O-],inconclusive: 20 µM
4,O=[N+]([O-])c1cccc([N+](=O)[O-])c1,inconclusive: 6.31 µM
